Measurements from article PMC4341510.
The exact form of at least one protein or probe is not confirmed. Weaker means in comparison with the reference protein, sequence or condition of that experiment. At least one verdict was read from the data and is not stated in words by the source.

Molecular target: TcJAMYC1 (Taxus cuspidata (cell culture line P991)) (UniProt B9VVN9)
Experiment: competition EMSA
Conditions: 20X vs CATGTG probe, did not compete well; 20 mM HEPES-KOH pH 7.9, 20% glycerol, 0.2 mM EDTA, 100 mM KCl, 0.5 mM PMSF, 1 mM DTT, 15 mM MgCl2, 5 ug BSA; 175 fmol probe in 20 ul; gel 7% PAGE, 0.5X TBE, 4 C; recombinant protein; protein details: N-terminal 6xHis (pDEST17)

Sequence	binding result
TAGCGCATCGATCATTTGATCGATCG / CGTACGATCGATCAAATGATCGATGC [CATTTG E-box]	binds more weakly
TAGCGCATCGATCATATGATCGATCG / CGTACGATCGATCATATGATCGATGC [CATATG E-box]	binds more weakly
TAGCGCATCGATCATCTGATCGATCG / CGTACGATCGATCAGATGATCGATGC [CATCTG E-box]	binds more weakly
TAGCGCATCGATCAACTGATCGATCG / CGTACGATCGATCAGTTGATCGATGC [CAACTG E-box]	binds more weakly
TAGCGCATCGATCAATTGATCGATCG / CGTACGATCGATCAATTGATCGATGC [CAATTG E-box]	binds more weakly
TAGCGCATCGATCACCTGATCGATCG / CGTACGATCGATCAGGTGATCGATGC [CACCTG E-box]	binds more weakly
TAGCGCATCGATCAAGTGATCGATCG / CGTACGATCGATCACTTGATCGATGC [CAAGTG E-box]	binds more weakly

Same assay, conditions: vs CACGTG probe, did not efficiently compete; 20 mM HEPES-KOH pH 7.9, 20% glycerol, 0.2 mM EDTA, 100 mM KCl, 0.5 mM PMSF, 1 mM DTT, 15 mM MgCl2, 5 ug BSA; 175 fmol probe in 20 ul; gel 7% PAGE, 0.5X TBE, 4 C; recombinant protein; protein details: N-terminal 6xHis (pDEST17)

Sequence	binding result
TAGCGCATCGATCATGTGATCGATCG / CGTACGATCGATCACATGATCGATGC [CATGTG E-box]	binds more weakly
